Publication PMC7819943, “Rice protein-binding microarrays: a tool to detect cis-acting elements near promoter regions in rice”
The other results are listed elsewhere or left out.

What follows are sequences tested against T1, OsSMF1 (Oryza sativa, UniProt Q6ZLB0 1-436) (assay: protein-binding microarray (RPBM); PBS, 2% BSA, 51.3 ng/ul salmon testes DNA, 50 uM zinc acetate, 200 nM TF, 25 C, 1 h; high values mean tight binding). Details: protein: recombinant; tags: N-terminal polyhistidine and DsRed monomer fusion (pET32a); chain copies: 2; label: CyDye5-dUTP incorporated in the synthesized complementary strand; 3' TTTTT single-stranded linker to array surface; dsDNA, one strand shown.
T1 sequence: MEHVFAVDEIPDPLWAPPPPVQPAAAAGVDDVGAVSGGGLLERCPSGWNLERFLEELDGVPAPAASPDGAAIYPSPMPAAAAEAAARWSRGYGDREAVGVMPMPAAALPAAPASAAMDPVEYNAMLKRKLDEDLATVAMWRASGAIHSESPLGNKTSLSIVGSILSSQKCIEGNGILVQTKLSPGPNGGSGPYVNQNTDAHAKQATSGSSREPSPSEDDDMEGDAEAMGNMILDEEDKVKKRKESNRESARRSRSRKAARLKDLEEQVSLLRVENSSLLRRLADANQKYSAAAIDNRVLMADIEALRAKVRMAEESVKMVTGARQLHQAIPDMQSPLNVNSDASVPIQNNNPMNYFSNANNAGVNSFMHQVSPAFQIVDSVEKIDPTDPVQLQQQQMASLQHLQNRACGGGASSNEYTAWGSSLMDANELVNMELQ
In short: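 Binding signal here means per-feature fluorescence intensity in arbitrary units. The values were read on an Axon 4000B scanner after a custom Agilent array, double-stranded by primer extension with Cy5-dUTP, was incubated with 200 nM protein at 25 °C for 1 h in PBS with 2% BSA, salmon testes DNA and 50 µM zinc acetate, then washed. The proteins were transcription factors with an N-terminal polyhistidine tag and DsRed, expressed in E. coli BL21-CodonPlus and purified on Ni–NTA.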
In the case of “GAGCACGTACACGTACTCCTCCTCCTACTACGTGATGAGTCGGAGTCACCTAGTGCAG”, the binding signal was 7260 fluorescence intensity (a.u.). For “CAGCACCGTCATCGTCGTCGTTGTCGCGCGTCACCGTGAACGGAGTCACCTAGTGCAG”, the binding signal was 5720 fluorescence intensity (a.u.). With “GAAGAAGAACATGGGCCGTCTCGGTTGCGTCGCGTCACGGCGGAGTCACCTAGTGCAG” the binding signal was 6130 fluorescence intensity (a.u.). With “AACTCTCTCTCTCCAGCTCCACCTTCTCCGAGGCCGCCATCGGAGTCACCTAGTGCAG” the binding signal was 3210 fluorescence intensity (a.u.). In the case of “AGGTTTTCAAGAGCTCAGGGAATGGGGATCTGACTGTCAGCGGAGTCACCTAGTGCAG”, the binding signal was 3720 fluorescence intensity (a.u.). “TGAAAATTTGTACACGTAAGTAATAGATGGTACCAATAGACGGAGTCACCTAGTGCAG” was tested, and the binding signal was 5890 fluorescence intensity (a.u.). For “AACAATCCAACAAACCAATCATCTGGACACGCTGTCTCAGCGGAGTCACCTAGTGCAG”, the binding signal was 3370 fluorescence intensity (a.u.). With “CTCGCGCGGTCGCCTTCTTTATTTGGCTACCTCCTCCTCCCGGAGTCACCTAGTGCAG” the binding signal was 3460 fluorescence intensity (a.u.). With “CCACCGGACGCGCTCGTCCGCGGCCTCTCGGCGGCCACCACGGAGTCACCTAGTGCAG” the binding signal was 3950 fluorescence intensity (a.u.). “ATCCCAAAATAATGTGTTCGGGTGGGCGGGCGGGAAATATCGGAGTCACCTAGTGCAG” was tested, and the binding signal was 3480 fluorescence intensity (a.u.). With “TAATTGCACAGTCAGGAGGAAATCACGAGATGAATATTTTCGGAGTCACCTAGTGCAG” the binding signal was 4060 fluorescence intensity (a.u.). With “GACAACCAACCATCCGTGTGTACAGCCCTACGTATACTCGCGGAGTCACCTAGTGCAG” the binding signal was 4080 fluorescence intensity (a.u.). With “GCGGGGCCTCACCCCTTCTCCATGGAGGCCACGGAGGTCGCGGAGTCACCTAGTGCAG” the binding signal was 4000 fluorescence intensity (a.u.). In the case of “TCGCCAGTTCCTAACGCATCGTCTTGCCAGGCCTCAATATCGGAGTCACCTAGTGCAG”, the binding signal was 3310 fluorescence intensity (a.u.). In the case of “GGATCAATTGCTAGTGCCAGCGTTAAGACTTTACATAGTGCGGAGTCACCTAGTGCAG”, the binding signal was 38500 fluorescence intensity (a.u.). For “ACTTTTCTTCTGTAACTCCACAGCTACTTTACTCAACATCCGGAGTCACCTAGTGCAG”, the binding signal was 3910 fluorescence intensity (a.u.). In the case of “GCGCATGCCACCTAGCTAGTTATATAGGATGTTACATATGCGGAGTCACCTAGTGCAG”, the binding signal was 3410 fluorescence intensity (a.u.). For “TCAAAGAAGAAAATGCTCCCTCCTGGGTGCAGTGATGGTTCGGAGTCACCTAGTGCAG”, the binding signal was 31800 fluorescence intensity (a.u.). For “GAGACTTTTACACGCATTCCAGTCATCACTAGTGTAGCGGCGGAGTCACCTAGTGCAG”, the binding signal was 6000 fluorescence intensity (a.u.). “ACGTACGTGTGCGTATCCGACAAGTCCCACGACGTGGCAACGGAGTCACCTAGTGCAG” was tested, and the binding signal was 4960 fluorescence intensity (a.u.). In the case of “CCTTCAGAAGCTGTGTAAAGATTTGTGTGTGTTAGTACCACGGAGTCACCTAGTGCAG”, the binding signal was 3330 fluorescence intensity (a.u.). “TTTAGCTCTCGTCGATGTGGTGTTTGTTGGGTTTTCCCTTCGGAGTCACCTAGTGCAG” was tested, and the binding signal was 3670 fluorescence intensity (a.u.). “CTACAAGAAGCCTCTCTCTGGCCTGTGCTGCATTGGCCTCCGGAGTCACCTAGTGCAG” was tested, and the binding signal was 3150 fluorescence intensity (a.u.). “ATGCTAATATTGTTTTCCTTTTCAGGAGTGTTCTCATACTCGGAGTCACCTAGTGCAG” was tested, and the binding signal was 3560 fluorescence intensity (a.u.). With “ACATATAATAATACATATAGTAATATAATTTTCAGCTTATCGGAGTCACCTAGTGCAG” the binding signal was 3210 fluorescence intensity (a.u.). In the case of “TGTGTCCATGACCCGTCGTACAATTGGTTTGAAACTTGTGCGGAGTCACCTAGTGCAG”, the binding signal was 3320 fluorescence intensity (a.u.). In the case of “AAGAGGATCGCAATCGTGAAAACTTCGCAAGTGTTCAGAACGGAGTCACCTAGTGCAG”, the binding signal was 59100 fluorescence intensity (a.u.). For “CTTAGCATAAGCACAATTTCCATTGCGTGTAATTATTTTGCGGAGTCACCTAGTGCAG”, the binding signal was 5530 fluorescence intensity (a.u.). In the case of “TATTGTGCTGACGCAGTGCAGATTATACGTAAGGCATTTTCGGAGTCACCTAGTGCAG”, the binding signal was 4220 fluorescence intensity (a.u.). In the case of “GCAAAGTTTGTATACACGTATGCAATGTTTGTATACATGTCGGAGTCACCTAGTGCAG”, the binding signal was 4420 fluorescence intensity (a.u.). “AAGCATCCTGCATTCACCTACGTCAACATGCATGCATGACCGGAGTCACCTAGTGCAG” was tested, and the binding signal was 3870 fluorescence intensity (a.u.). With “TGAGCTGCTTTTACACGTTGCTTTATTGACACTTGTTCACCGGAGTCACCTAGTGCAG” the binding signal was 45500 fluorescence intensity (a.u.). For “ACTAGAATCTCACACATGACACATCCATCACATCACACACCGGAGTCACCTAGTGCAG”, the binding signal was 4690 fluorescence intensity (a.u.). With “CTTGAAACGAACATAGCCACGTCGACGTGTTTCAAATTCCCGGAGTCACCTAGTGCAG” the binding signal was 15100 fluorescence intensity (a.u.). In the case of “CGACGAGAAGGACACCTCCTCGGAAAAGGGAGGGCGTCGGCGGAGTCACCTAGTGCAG”, the binding signal was 44600 fluorescence intensity (a.u.). For “GGTAAGCATCATACTGTTCGTTGTTGACTCAATGATCATCCGGAGTCACCTAGTGCAG”, the binding signal was 3580 fluorescence intensity (a.u.). In the case of “ATCGTTCTGTACCCGGGCCTCTACGTCAGCCACTTCGTCCCGGAGTCACCTAGTGCAG”, the binding signal was 9600 fluorescence intensity (a.u.). With “TCCCTGAAGTCGATATCTGACGTCTTGTCTTGGCGTATGTCGGAGTCACCTAGTGCAG” the binding signal was 4340 fluorescence intensity (a.u.). “TTGTAGCTCTACACATCATGCTATGCTAAACAACCTACTCCGGAGTCACCTAGTGCAG” was tested, and the binding signal was 3140 fluorescence intensity (a.u.). “GACATGGAGGCTGACGCCGCCTACGACGCCGGGTTCAACGCGGAGTCACCTAGTGCAG” was tested, and the binding signal was 4170 fluorescence intensity (a.u.). “GCTGGCTGCTTGCTCTACTGCAATTATTTATTGCCACCTCCGGAGTCACCTAGTGCAG” was tested, and the binding signal was 3220 fluorescence intensity (a.u.). For “CCACTGGCGACCGCCACGTCGACCTGGCGTGGGACCTCATCGGAGTCACCTAGTGCAG”, the binding signal was 8920 fluorescence intensity (a.u.). “CGAACCGATGGTTGTGATTGTACGTGTCTACCTGATACGTCGGAGTCACCTAGTGCAG” was tested, and the binding signal was 5940 fluorescence intensity (a.u.). For “GGTTGGAGGAAGAGGAGGAGCGGAGGAGATCCCCAACCACCGGAGTCACCTAGTGCAG”, the binding signal was 3200 fluorescence intensity (a.u.). In the case of “GATCAATAGATAAATGCGTCCTCCGTATCTTCAGCAAATCCGGAGTCACCTAGTGCAG”, the binding signal was 3660 fluorescence intensity (a.u.). “AACCCGCGGGCCGCCGCCGCCGCCACCGCCGCCGCCGATTCGGAGTCACCTAGTGCAG” was tested, and the binding signal was 3340 fluorescence intensity (a.u.). With “TGAGGATCTACATGGACACTGCCGTCGTCGTGGTGCTGTCCGGAGTCACCTAGTGCAG” the binding signal was 3740 fluorescence intensity (a.u.). For “AATCAAGAGCGGTTTTATCCTATGTGGCGTACGCGTGGCACGGAGTCACCTAGTGCAG”, the binding signal was 14900 fluorescence intensity (a.u.). In the case of “GATCGGCCGACGTGGCCTCGCCGGAGACGGTTGATGCGAGCGGAGTCACCTAGTGCAG”, the binding signal was 6360 fluorescence intensity (a.u.). “CCACCGCCTCGTTGCTGCCGTCACCAACCCACCACCAGAACGGAGTCACCTAGTGCAG” was tested, and the binding signal was 3570 fluorescence intensity (a.u.). For “CGTAGGCTCGTCGCGGCCACGTACGCCATCCCGAGCTCGGCGGAGTCACCTAGTGCAG”, the binding signal was 6280 fluorescence intensity (a.u.). With “ATTGTTTTGGAGTGACAAAGTTGCTTAATTTTGGTGAATGCGGAGTCACCTAGTGCAG” the binding signal was 3820 fluorescence intensity (a.u.). With “TGTGCTCCCTTCGTGGCGGCGACGCCGACGAGGCGTACGCCGGAGTCACCTAGTGCAG” the binding signal was 3970 fluorescence intensity (a.u.). With “GAATTTTCACGTTAGTGCCACATGTATGTCACGTAGGATCCGGAGTCACCTAGTGCAG” the binding signal was 4570 fluorescence intensity (a.u.).
